Assay results

Data taken from PubChem BioAssay AID588532, deposited by NCATS (2011).

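Reporter enzyme signal from engineered HeLa cells, measuring how much glucocorticoid receptor signaling is switched on after an 18 h treatment.
Compounds were tested as a dilution series; the record's dose columns span about 0.00043 to 54,000 µM.
The value is a fitted half-maximal activation concentration (AC50), so a lower number means a more potent agonist.
Calls come from the dose-curve shape; inconclusive marks weak, poorly fitted, top-dose-only or side-signal effects, and all rows here are inconclusive.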

Values are in µM.
Every entry below has the call inconclusive.
These entries are mostly ones the record files as inconclusive; other results of the assay are not listed here.
Potencies fitted to partial, single-point or poorly fitting curves are rough.
Some entries filed as inconclusive have a full curve.
The first word of each remark tells which way the curve ran; it can be opposite to the aim of the assay.

* Oc1c(Cl)c(Cl)cc(Cl)c1Cl | Potency 17.78 µM (side channel, falling, full curve)
* Nc1ccc2cc3ccccc3cc2c1 | Potency 25.12 µM (fluorescent, side channel, full curve, poor fit)
* CCOCCOCC | Potency 2.239 µM (side channel, falling, full curve, poor fit)
* O=C(Oc1ccccc1)c1ccccc1O | Potency 11.22 µM (side channel, falling, full curve, poor fit)
* CN(C)C(=S)SC(=S)N(C)C | Potency 0.0282 µM (side channel, falling, full curve, poor fit)
* Oc1ccccc1Cl | Potency 1.413 µM (side channel, falling, full curve, poor fit)
* Nc1cccc2c(N)cccc12 | Potency 0.0089 µM (side channel, rising, full curve, poor fit)
* Cc1c2ccccc2c(C)c2c1ccc1ccccc12 | Potency 35.48 µM (activator, partial curve)
* O=C(Cl)c1cccc(C(=O)Cl)c1 | Potency 0.0891 µM (side channel, falling, full curve, poor fit)
* O=Cc1ccc(Cl)cc1Cl | Potency 0.0355 µM (side channel, falling, full curve, poor fit)
* BrCCc1ccccc1 | Potency 0.002 µM (side channel, falling, full curve, poor fit)
* O=C1C2(Cl)C3(Cl)C4(Cl)C(Cl)(Cl)C5(Cl)C3(Cl)C1(Cl)C5(Cl)C24Cl (configuration not stated) | Potency 31.62 µM (side channel, falling, full curve, poor fit)
* Nc1cc(Cl)c(N)c(Cl)c1 | Potency 0.631 µM (side channel, rising, full curve, poor fit)
* CCOC(=O)c1ccccc1C(=O)OCC | Potency 0.0089 µM (side channel, falling, full curve, poor fit)
* c1ccsc1 | Potency 3.981 µM (side channel, falling, full curve, poor fit)
* Nc1c(N=Nc2ccc(S(=O)(=O)CCOS(=O)(=O)O)cc2)c(S(=O)(=O)O)cc2cc(S(=O)(=O)O)c(N=Nc3ccc(S(=O)(=O)CCOS(=O)(=O)O)cc3)c(O)c12 | Potency 35.48 µM (side channel, falling, partial curve, poor fit)
* Nc1ccc([N+](=O)[O-])cc1[N+](=O)[O-] | Potency 0.1 µM (side channel, falling, full curve, poor fit)
* N#C/C=C/C#N | Potency 39.81 µM (side channel, rising, single point)
* CC(C)Br | Potency 0.1585 µM (side channel, falling, full curve, poor fit)
* CC1(C)[C@H](C(=O)O[C@H](C#N)c2cccc(Oc3ccccc3)c2)[C@@H]1C=C(Br)Br | Potency 0.0028 µM (side channel, rising, full curve, poor fit)
* CCOP(=S)(OCC)SCCSCC | Potency 22.39 µM (side channel, falling, single point)
* CCCCC(CC)COC(=O)c1ccccc1C(=O)O (configuration not stated) | Potency 0.1122 µM (side channel, falling, full curve, poor fit)
* Brc1ccc(Oc2ccc(Br)cc2)cc1 | Potency 0.02 µM (side channel, falling, full curve, poor fit)
* S=C([S-])NCCNC(=S)[S-].[Zn+2] | Potency 25.12 µM (side channel, rising, partial curve, poor fit)
* CC(=O)CC(=O)Nc1ccccc1 | Potency 0.0025 µM (side channel, falling, full curve, poor fit)
* c1ccc2c(c1)ccc1cc3c(ccc4ccccc43)cc12 | Potency 44.67 µM (activator, partial curve, poor fit)
* FC(F)(F)c1ccc(Cl)cc1 | Potency 31.62 µM (side channel, rising, partial curve, poor fit)
* O=C(O)C(Br)Br | Potency 5.623 µM (side channel, falling, full curve, poor fit)
* Cc1ccc2oc(=O)ccc2c1 | Potency 0.7079 µM (side channel, falling, full curve, poor fit)
* C=C1C(CCl)(CCl)C2(Cl)C(Cl)C(Cl)C1(Cl)C2(Cl)Cl (configuration not stated) | Potency 50.12 µM (side channel, falling, partial curve, poor fit)

The first 2 entries again:

Oc1c(Cl)c(Cl)cc(Cl)c1Cl gave Potency 17.78 µM (side channel, falling, full curve).
Nc1ccc2cc3ccccc3cc2c1 gave Potency 25.12 µM (fluorescent, side channel, full curve, poor fit).